# In PubChem BioAssay AID1259415 (National Center for Advancing Translational Sciences (NCATS), 2018):
# In all, about 410,000 compounds went through this assay and about 18,000 (4.4%) were called active. The shares of active, inactive and inconclusive entries below differ from those in the screen. No stated cut-off is given here; in the data, active means activity change below about -60%; inconclusive means no clear call, values can overlap the other calls; inactive means above about -39%.
# Test: qHTS Assay for inhibitors of the human cytomegalovirus (HCMV)
# Details: HFF cells, HCMV-luciferase reporter, 72 h; at 57.5 µM; stronger effect = lower value
# Procedure, shortened: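 Cell-based, HFFs, 1000 cells/well, 16 h 37C; cpds in DMSO + HCMV-luc, MOI 1 PFU/cell; 72 h 37C; OneGlo luminescence after 5 min RT; norm. to buffer vs Salinomycin 10uM.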
# On the % scale 0 is the no-effect control and ±100 the full control effect.
row,SMILES,"activity change, negative = inhibition"
1,CC1CCCC(C)N1C(=O)c1ccc(S(=O)(=O)NCc2ccco2)cc1 (stereo not drawn),active: -76.1%
2,COCCCN1C(=O)C(CC(=O)NCCN2CCOCC2)CC(C(=O)N2CCCCCC2)=C1C (stereo not drawn),inactive: 1.11%
3,COc1cc(C(=O)NCC(=O)N/N=C(\C)Cc2ccccc2)cc(OC)c1OC,inconclusive: -44.5%
4,O=C(O)CCC(=O)OCCCc1cc2ccccc2c(=O)o1,inconclusive: -48.2%
5,Cc1ccc(C2CCN(C(=O)c3cnn(-c4cccc(Cl)c4)c3C3CCN(C(=O)OC(C)(C)C)CC3)C2)cc1 (stereo not drawn),inconclusive: -45.8%
6,COc1cccc(/C=N/NC(=O)c2c(C)nc3ccc(Cl)cn23)c1O,active: -99.2%
7,COc1ccc(CN(CC(=O)NCc2ccccc2)C(=O)c2csnn2)cc1,inconclusive: -40.1%
8,CCCN(Cc1cccs1)C(=O)Nc1ccc(OCC)cc1,inconclusive: -42.2%
9,Cc1ccccc1Cn1ccc(NC(=O)c2nn(C)cc2[N+](=O)[O-])n1,inconclusive: -45.9%
10,COc1ccc(CCNC(=O)c2c([S-])n(-c3ccc(C)cc3)c3cccc[n+]23)cc1,inconclusive: -50%
11,O=C(NC(=S)N1CCOCC1)c1cc2ccccc2o1,inactive: -4.73%
12,CC1CCCN(S(=O)(=O)c2ccc(NC(=O)c3cccc(-n4cnnn4)c3)cc2)C1 (stereo not drawn),inconclusive: -51.6%
13,CCOc1ccc(-n2c(SCC(=O)N3CCc4ccccc43)nc3c([nH]c4ccccc43)c2=O)cc1,inactive: 3.97%
14,Cc1cccc(-c2nnc(SCc3cc(=O)c4cccc(Cl)c4[nH]3)n2C)c1,inconclusive: -53.6%
15,CCOc1ccccc1N1CCN(CC(=O)N(CC(C)C)c2c(N)n(CC(C)C)c(=O)[nH]c2=O)CC1,inconclusive: -42.4%
16,O=C(CN1C(=O)COc2ccc(S(=O)(=O)N3CCCCCC3)cc21)Nc1cccc(Cl)c1,active: -72%
17,CC1Cc2cc(-c3csc(NC(=O)Cc4cccs4)n3)ccc2N1S(C)(=O)=O (stereo not drawn),active: -99.8%
18,c1ccc2cc(CN3CCOCC3)ccc2c1,inactive: 24.4%
19,Cc1cc(C)c[n+](-c2nc3ccccc3nc2[N-]S(=O)(=O)c2cccs2)c1,inconclusive: -42.6%
20,Cc1ccc(S(=O)(=O)N2CCN(c3nc(C(C)C)c4c(c3C#N)CC(C)(C)OC4)CC2)cc1,inconclusive: -57.2%
21,Cc1nc(N2CCCCCC2)c2ccccc2n1,inconclusive: -45.7%
22,CC(C)N1CCN(Cc2cccc(-c3ccco3)c2)CC1CCO (stereo not drawn),inconclusive: -47.3%

# Some values from above.
# Under activity change, negative = inhibition, Cc1cc(C)c[n+](-c2nc3ccccc3nc2[N-]S(=O)(=O)c2cccs2)c1 is entered as inconclusive: -42.6%
# Under activity change, negative = inhibition, CCCN(Cc1cccs1)C(=O)Nc1ccc(OCC)cc1 is entered as inconclusive: -42.2%

# (cont.)

row,SMILES,"activity change, negative = inhibition"
1,O=C(NCCC1CCCCN1S(=O)(=O)c1ccccc1)C(=O)Nc1ccc(F)cc1F (stereo not drawn),inactive: -8.72%
2,NNC(=S)Nc1ccc(Cl)cc1,inactive: -6.3%
3,CCOc1ccccc1N(CC(=O)N(C)Cc1ccccc1)S(=O)(=O)c1ccccc1,inconclusive: -43%
4,COc1ccc(N=Nc2ccc(CO)cc2)cc1,inactive: 70.4%
5,COc1ccccc1C(=O)COC(=O)c1ccc(Cl)nc1,inactive: -6.42%
6,Cn1c(-c2ccccc2)c(/C=N/NC(=O)c2cccnc2)c2ccccc21,inconclusive: -43.2%
7,Cc1cccc(C)c1NC(=O)CN1CCN(C(=O)CNC(=O)c2ccc(-c3ccccc3)cc2)CC1,inconclusive: -55%
8,CCN(CC)CCNc1ccc(CO)c2sc3ccccc3c(=O)c12,active: -95.8%
9,Cc1c(C(=O)N2CCN(Cc3ccc4c(c3)OCO4)CC2)sc2ncnc(N3CCN(c4ccccc4)CC3)c12,active: -85.8%
10,c1ccc2c(Nc3nnc(-c4ccncc4)s3)cccc2c1,inactive: -20.5%
11,COc1ccc(N2CCN(CCCNC(=O)Cn3c(=O)c4cccn4c4cccnc43)CC2)cc1,inconclusive: -58.5%
12,Cc1ccc(NC(=O)CSc2nc3c([nH]c4ccccc43)c(=O)n2-c2ccccc2)cc1Cl,inactive: -24%
13,C#CCNC(=O)C1=C[C@H](c2csc3ccccc23)[C@@H](CCCO)[C@H](OCC)O1,inactive: 12.1%
14,Cc1ccc(NC(=O)C2CCN(S(=O)(=O)c3ccc4c(c3)NC(=O)CO4)CC2)cc1,inconclusive: -40.9%
15,S=C1Cc2ccccc2N1,active: -82.8%
16,Cc1[nH]n2c(=O)cc(-c3ccc(Cl)cc3)nc2c1-c1ccccc1,active: -107%
17,CC1=CC(=Nc2c(C)n(C)n(-c3ccccc3)c2=O)C=C(C)C1=O,active: -74.6%
18,COc1cc(C2C(C#N)=C(N)Oc3cc(C)n(CCN4CCOCC4)c(=O)c32)cc(OC)c1OC (stereo not drawn),inconclusive: -56.9%
19,NC(=O)c1sc2nc3c(cc2c1N)CCCCCC3,inconclusive: -49.6%
20,Cc1cc(C)c2c(c1)/C(=N\N=c1\sc3ccccc3n1C)C(=O)N2,inconclusive: -44%
21,CC(C)CC(NC(N)=O)C(=O)Nc1ccc(Oc2ccccc2)cc1 (stereo not drawn),inconclusive: -44.1%
